Assay results taken from PubChem BioAssay AID493014 (National Center for Advancing Translational Sciences (NCATS), 2011).
The other results are listed elsewhere or left out. Shown are side measurements of this screen, not its main read-out; they come without a call. Compounds called inactive in the main read-out are mostly missing here. Words in brackets tell the shape of the fitted curve; partial curves, single points and poor fits give uncertain potencies.

Experiment: qHTS Assay to Find Inhibitors of Chronic Active B-Cell Receptor Signaling
Conditions: ABC-DLBCL IkBa-CBG/CBR reporter, luminescence ratio (green luciferase fused to IkBa over red control in TMD8 lymphoma cells), 4 h
How it was run: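 Cell line TMD8 (human ABC DLBCL), stably expressing tet-inducible CBG68-IkBa fusion and CBR; IMDM/0.5% FBS; cpd up to 46 uM; dox induction, 4 h, 37C/5% CO2; dual luminescence; green/red ratio; MG132 control.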

[1] = measured here: CBR red luminescence, cell number
[2] = measured here: IkBa-CBG green luminescence

In the case of `Cc1snc(S(=O)(=O)/C(C#N)=N/Nc2cccc(C(F)(F)F)c2)c1C#N`, the AC50 [1] is reported as 29.1 µM [rising, single point].
In the case of `Cc1ccc(C(=O)O/N=C(\N)c2ccccc2)c(Cl)c1`, the AC50 [1] is reported as 11.2 µM [falling, single point].
In the case of `COc1ccc(NC(=O)CSc2nnc(-c3cccs3)n2Cc2ccco2)cc1OC`, the AC50 [1] is reported as 17.8 µM [falling, partial curve].
For `COc1ccc(C2=NOC(C(=O)Nc3ccc4c(c3)OCCO4)C2)c(OC)c1` (configuration not stated), the AC50 [1] was 12.6 µM [falling, partial curve, poor fit].
For `COC(=O)c1ccc(CNC(=O)COC(=O)/C=C/c2cc(OC)c(OC)c(OC)c2)cc1`, the AC50 [1] was 2.31 µM [rising, partial curve, poor fit].
In the case of `COc1ccc(-c2nc(N)n(C(=O)c3ccc(C)cc3)n2)cc1`, the AC50 [1] is reported as 5.17 µM [falling, partial curve, poor fit].
In the case of `Cc1ccc(C(=O)NCCSc2c(C)[nH]c3ccccc23)cc1[N+](=O)[O-]`, the AC50 [2] is reported as 20.6 µM [falling, single point].
In the case of `O=C(c1ccccc1)c1nn(-c2ccc(Cl)cc2)c(=O)cc1C(F)(F)F`, the AC50 [1] is reported as 3.16 µM [falling, full curve, poor fit].
With `CCOCCCNC(=O)NC12CC3CC(CC(C3)C1)C2` the AC50 [1] was 5.62 µM [rising, single point].
For `Cc1ccc[n+](-c2nc([O-])sc2/C=N/Nc2ccc([N+](=O)[O-])cc2)c1`, the AC50 [1] was 1 µM [rising, full curve, poor fit].
For `Nc1cc(N2CCCCC2)c(Cl)cc1[N+](=O)[O-]`, the AC50 [1] was 29.1 µM [rising, single point].
With `O=C(NCCc1nc2ccccc2[nH]1)c1cc([N+](=O)[O-])cc([N+](=O)[O-])c1` the AC50 [2] was 25.9 µM [rising, partial curve, poor fit].
For `COc1cccc(N2CC(O)=C(c3nc4ccccc4s3)C2=N)c1`, the AC50 [1] was 8.91 µM [rising, partial curve] and the AC50 [2] was 6.31 µM [falling, partial curve, poor fit].
With `c1ccc(N2CCN(c3nnc(Cc4cccnc4)c4ccccc34)CC2)nc1` the AC50 [1] was 15.8 µM [falling, single point].
For `C=C1SC(Nc2c(C)cc(C)cc2C)=NC12CCCCC2`, the AC50 [1] was 5.62 µM [rising, single point].
With `CCCOc1ccc(C2C(=O)N(C3CCCCCC3)CC(=O)N2CCC)cc1OC` (configuration not stated) the AC50 [1] was 44.7 µM [falling, partial curve, poor fit].
In the case of `COC(=O)N1C(=O)[C@@](c2ccccc2)(C2CCCCC2)N1C(=O)OC`, the AC50 [1] is reported as 10 µM [falling, partial curve, poor fit].
In the case of `CCOC(=O)/C(C#N)=C/C1=C(N2CCOCC2)CC(C)(C)OC1`, the AC50 [1] is reported as 0.501 µM [rising, full curve, poor fit].
In the case of `CCc1ccccc1NC1=NCC(=O)N1C1CCCC1`, the AC50 [1] is reported as 31.6 µM [rising, partial curve, poor fit].
For `COc1ccc(C(=O)O/N=C(\N)c2ccccc2)cc1`, the AC50 [1] was 5.01 µM [falling, partial curve, poor fit] and the AC50 [2] was 0.1 µM [rising, full curve, poor fit].
For `CCCOC(=O)c1ccc(-c2c(C)noc2-c2ccc(OC)cc2O)o1`, the AC50 [1] was 0.461 µM [rising, partial curve, poor fit] and the AC50 [2] was 0.461 µM [falling, full curve, poor fit].
With `CCn1c(SCC(=O)c2ccc(F)cc2)nnc1-c1ccoc1C` the AC50 [1] was 0.116 µM [falling, partial curve, poor fit].
In the case of `COc1ccc(NC(=O)c2cc(-c3cccc(OC)c3)on2)cc1`, the AC50 [1] is reported as 8.91 µM [falling, partial curve, poor fit].
With `CCN(CC)C(=O)COc1ccc2c3c(c(=O)oc2c1)CCCC3` the AC50 [1] was 35.5 µM [rising, single point].
For `CCOC(=O)C1NN=C(C(=O)c2ccccc2)C1c1ccccc1` (configuration not stated), the AC50 [1] was 29.1 µM [falling, single point].
In the case of `NC1=NCC(O)=C1c1nc2ccccc2[nH]1`, the AC50 [1] is reported as 5.62 µM [falling, full curve].
For `C=C(C)CNC(=S)NNC(=O)c1ccco1`, the AC50 [1] was 25.9 µM [rising, single point] and the AC50 [2] was 29.1 µM [falling, single point].
For `O=C(Cc1ccccc1)NC(c1ccco1)c1c(O)ccc2ccccc12` (configuration not stated), the AC50 [1] was 35.5 µM [falling, single point].
For `CN(C)CCCN(C(=O)COc1ccccc1)c1nc2cc3c(cc2s1)OCO3`, the AC50 [1] was 12.6 µM [falling, single point].
In the case of `Cc1ccc(Nc2nnc(-c3ccc(C)c(S(N)(=O)=O)c3)c3ccccc23)cc1`, the AC50 [1] is reported as 11.2 µM [falling, partial curve, poor fit].
For `CC(C(=O)N1CCc2ccccc21)N1CCN(S(=O)(=O)c2ccc(C(F)(F)F)cc2)CC1` (configuration not stated), the AC50 [1] was 29.1 µM [falling, single point].
In the case of `O=C(N/N=C/c1cccc(O)c1)c1csc2ccccc12`, the AC50 [1] is reported as 5.01 µM [falling, partial curve].
For `Cc1[nH]c2ccccc2c1SCC(=O)N1CCCc2ccccc21`, the AC50 [1] was 3.66 µM [rising, partial curve, poor fit].
With `O=C(N/N=C(\c1ccccc1)c1ccccn1)c1cccc([N+](=O)[O-])c1` the AC50 [2] was 10 µM [falling, partial curve, poor fit].
With `Cc1ccc(-c2noc(CCCOc3ccc(Cl)cc3Cl)n2)cc1` the AC50 [2] was 32.6 µM [rising, partial curve, poor fit].
With `Cc1ccc(CSCC(=O)N(C)CC(=O)Nc2ccc(Br)cc2C)cc1` the AC50 [1] was 18.4 µM [falling, single point].
With `COc1ccc(NC(=O)CN(C)CC(=O)Nc2cccc(C(F)(F)F)c2)cc1` the AC50 [1] was 35.5 µM [falling, single point].
With `O=c1nc(Nc2cccc(Cl)c2)oc2cc(Cl)oc(=O)c12` the AC50 [1] was 3.98 µM [falling, full curve, poor fit].
With `O=C(Oc1ccc2c(c1)OCC2=O)c1ccccc1` the AC50 [1] was 29.1 µM [rising, single point].
For `CSc1nc(SCC(=O)O)c2sc3nc(-c4ccccc4)c4c(c3c2n1)CCC4`, the AC50 [1] was 20 µM [falling, partial curve, poor fit].
For `O=c1cc(CSc2ccccc2)nc(-c2ccncc2)[nH]1`, the AC50 [1] was 25.1 µM [falling, single point].
In the case of `Nc1c(C(=O)NCCN2CCOCC2)c2nc3ccccc3nc2n1-c1ccccc1`, the AC50 [1] is reported as 22.4 µM [falling, single point].
In the case of `COCCSc1nnc(NS(=O)(=O)Cc2ccccc2)s1`, the AC50 [1] is reported as 3.66 µM [rising, partial curve].
With `C=C(C)COc1ccc(-c2nc(N)ncc2-c2ccc(OC)cc2)c(O)c1` the AC50 [1] was 35.5 µM [falling, single point].
For `NNC(=O)c1cc(O)c(O)c(O)c1`, the AC50 [1] was 11.2 µM [falling, partial curve].
In the case of `CC(C)(C)OC(=O)C[C@H]1C/C=C\C[C@H](CC(=O)N[C@H](CO)Cc2ccccc2)C(=O)N2CCC[C@@H]2COC1=O`, the AC50 [1] is reported as 4.61 µM [falling, single point].
For `C/C(=N\NC(=O)CC(C)C)c1ccc(Cl)c(Cl)c1`, the AC50 [1] was 2.51 µM [rising, full curve, poor fit].
In the case of `CN1C=CC=C/C1=C1\SC(=S)N(CC(=O)O)C1=O`, the AC50 [1] is reported as 35.5 µM [rising, single point].
For `COc1ccccc1/C=C(/NC(=O)c1ccccc1)C(=O)NCCCn1ccnc1`, the AC50 [1] was 11.2 µM [falling, single point].
With `Cc1cccc(CCN=c2c([N+](=O)[O-])nn(-c3ccccc3)n2O)c1` the AC50 [1] was 0.398 µM [falling, partial curve, poor fit].
In the case of `CCC(C)n1c(=S)[nH]c2ccccc2c1=O` (configuration not stated), the AC50 [1] is reported as 0.891 µM [rising, full curve, poor fit].
With `COc1ccccc1-n1c(CNC(=O)c2ccco2)nnc1SCC(=O)Nc1ccc(F)cc1` the AC50 [1] was 3.98 µM [falling, full curve, poor fit].
For `CSc1ccccc1NC(=O)COC(=O)c1ccccc1O`, the AC50 [1] was 10 µM [falling, partial curve].
With `COc1ccccc1-n1c(SCC(=O)NCc2ccc3c(c2)OCO3)nc2cc([N+](=O)[O-])ccc21` the AC50 [1] was 29.1 µM [falling, single point].
For `O=C(Nc1ccc(-c2noc(CCc3ccccc3)n2)cc1)c1ccco1`, the AC50 [1] was 2.59 µM [rising, full curve].
In the case of `Cn1c(=O)n(C)c2cc(NS(=O)(=O)c3ccc(Cl)s3)ccc21`, the AC50 [1] is reported as 22.4 µM [rising, partial curve, poor fit].
For `COc1cccc(NC(=O)CN(C)C(C)C(=O)NC(=O)NC2CCCCC2)c1` (configuration not stated), the AC50 [1] was 29.1 µM [rising, single point].
In the case of `Cc1nc(Nc2ccccc2)[nH]c(=O)c1CCC(C)C`, the AC50 [1] is reported as 9.2 µM [rising, single point].
With `CCN(CC)c1ccc(/C=C2/C(=O)ON=C2C)cc1` the AC50 [1] was 2.59 µM [falling, full curve].
For `Cc1ccccc1/C=N/Nc1nc2ccccc2[nH]1`, the AC50 [1] was 11.2 µM [falling, partial curve, poor fit].
In the case of `Cc1cccc(NC(=S)NCc2ccc3[nH]c4c(c3c2)CCCC4)c1`, the AC50 [2] is reported as 29.1 µM [falling, single point].
For `Cc1ccc2nc(N3CCOCC3)c(C=O)cc2c1`, the AC50 [1] was 12.6 µM [rising, single point].
With `Nc1ccc2[nH]ncc2c1` the AC50 [1] was 10 µM [falling, partial curve].
